Results as given in publication PMC8802528.
These are yes or no findings as the source states them, for the method shown. Binding seen in cells or lysates may run through a third protein. Some results given as binding are weak or reduced against the parent protein; the word gives no strength.

Chains of the proteins cited; added tags and fusions are not shown.
UniProt O15054: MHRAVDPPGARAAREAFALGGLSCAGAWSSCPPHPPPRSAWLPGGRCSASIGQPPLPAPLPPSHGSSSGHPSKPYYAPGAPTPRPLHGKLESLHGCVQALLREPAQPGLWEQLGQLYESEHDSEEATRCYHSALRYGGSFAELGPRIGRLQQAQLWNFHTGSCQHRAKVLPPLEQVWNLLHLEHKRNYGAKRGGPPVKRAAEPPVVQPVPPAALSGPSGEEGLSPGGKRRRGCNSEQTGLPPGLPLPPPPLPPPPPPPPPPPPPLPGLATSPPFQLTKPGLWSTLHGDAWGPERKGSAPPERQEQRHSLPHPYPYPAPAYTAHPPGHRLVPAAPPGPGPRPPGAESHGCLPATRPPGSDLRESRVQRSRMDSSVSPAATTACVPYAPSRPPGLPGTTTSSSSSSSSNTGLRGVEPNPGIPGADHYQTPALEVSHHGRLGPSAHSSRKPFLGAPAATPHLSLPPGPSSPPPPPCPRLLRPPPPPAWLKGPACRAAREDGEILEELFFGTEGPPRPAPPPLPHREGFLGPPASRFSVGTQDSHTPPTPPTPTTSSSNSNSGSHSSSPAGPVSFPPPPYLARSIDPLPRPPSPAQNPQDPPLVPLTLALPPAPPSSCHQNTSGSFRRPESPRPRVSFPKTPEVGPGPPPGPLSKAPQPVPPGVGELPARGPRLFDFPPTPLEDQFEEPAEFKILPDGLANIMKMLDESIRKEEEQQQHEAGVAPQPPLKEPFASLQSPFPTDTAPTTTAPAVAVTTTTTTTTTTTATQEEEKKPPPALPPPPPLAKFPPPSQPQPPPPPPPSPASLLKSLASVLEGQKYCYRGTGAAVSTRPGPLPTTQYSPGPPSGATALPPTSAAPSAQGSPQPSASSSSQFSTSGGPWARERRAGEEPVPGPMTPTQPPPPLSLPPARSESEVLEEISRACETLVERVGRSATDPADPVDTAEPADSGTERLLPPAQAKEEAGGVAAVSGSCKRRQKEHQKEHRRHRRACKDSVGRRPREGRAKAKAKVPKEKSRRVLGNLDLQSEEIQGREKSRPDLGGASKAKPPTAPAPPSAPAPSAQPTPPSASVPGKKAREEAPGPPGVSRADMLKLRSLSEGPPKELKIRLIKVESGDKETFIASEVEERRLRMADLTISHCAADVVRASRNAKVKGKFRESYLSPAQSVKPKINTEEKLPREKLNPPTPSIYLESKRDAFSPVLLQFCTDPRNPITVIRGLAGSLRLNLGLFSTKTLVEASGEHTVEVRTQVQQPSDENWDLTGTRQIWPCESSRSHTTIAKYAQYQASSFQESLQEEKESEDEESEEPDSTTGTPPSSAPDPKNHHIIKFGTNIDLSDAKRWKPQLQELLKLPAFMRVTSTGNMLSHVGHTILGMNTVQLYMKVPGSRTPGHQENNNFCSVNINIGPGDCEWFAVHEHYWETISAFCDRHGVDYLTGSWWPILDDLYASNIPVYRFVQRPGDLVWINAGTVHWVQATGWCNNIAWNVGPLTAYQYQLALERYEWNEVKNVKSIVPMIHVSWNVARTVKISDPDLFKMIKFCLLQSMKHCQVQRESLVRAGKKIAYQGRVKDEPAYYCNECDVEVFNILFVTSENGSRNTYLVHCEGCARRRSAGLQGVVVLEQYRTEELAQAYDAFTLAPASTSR

Target: T1, LIM homeodomain transcription factor islet1 (ISL1) (UniProt P61371)
T1 sequence: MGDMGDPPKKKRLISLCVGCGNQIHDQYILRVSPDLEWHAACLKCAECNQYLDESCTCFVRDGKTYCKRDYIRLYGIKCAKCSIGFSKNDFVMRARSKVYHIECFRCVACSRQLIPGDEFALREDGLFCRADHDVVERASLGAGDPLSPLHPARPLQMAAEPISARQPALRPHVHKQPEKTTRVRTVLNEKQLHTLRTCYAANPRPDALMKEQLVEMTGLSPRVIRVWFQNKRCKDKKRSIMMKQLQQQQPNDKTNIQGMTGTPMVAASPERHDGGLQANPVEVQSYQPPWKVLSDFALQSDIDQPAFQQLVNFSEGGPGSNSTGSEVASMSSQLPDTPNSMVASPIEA
Experiment: co-IP; cell lysate mixed with anti-ISL1/anti-KDM6B and protein A sepharose at 4 °C overnight; beads washed three times with lysis buffer; Western blot for KDM6B/ISL1; 10% supernatant as input

Lysine-specific demethylase 6B (KDM6B) (from UniProt O15054 1-1643)
binding: binds
